Measurements as given in the supplement of paper PMC12819154, “High-throughput peptide-centric local stability assay extends protein–ligand identification to membrane proteins, tissues and bacteria” (Nature Structural & Molecular Biology, 2025).
The other results are listed elsewhere or left out. Most entries show no effect beyond the scatter of the controls.

Amino acid sequences for entries named in this document (tags omitted). A change or cut given only in a name is not applied to a line headed by its entry.
UniProt P43329: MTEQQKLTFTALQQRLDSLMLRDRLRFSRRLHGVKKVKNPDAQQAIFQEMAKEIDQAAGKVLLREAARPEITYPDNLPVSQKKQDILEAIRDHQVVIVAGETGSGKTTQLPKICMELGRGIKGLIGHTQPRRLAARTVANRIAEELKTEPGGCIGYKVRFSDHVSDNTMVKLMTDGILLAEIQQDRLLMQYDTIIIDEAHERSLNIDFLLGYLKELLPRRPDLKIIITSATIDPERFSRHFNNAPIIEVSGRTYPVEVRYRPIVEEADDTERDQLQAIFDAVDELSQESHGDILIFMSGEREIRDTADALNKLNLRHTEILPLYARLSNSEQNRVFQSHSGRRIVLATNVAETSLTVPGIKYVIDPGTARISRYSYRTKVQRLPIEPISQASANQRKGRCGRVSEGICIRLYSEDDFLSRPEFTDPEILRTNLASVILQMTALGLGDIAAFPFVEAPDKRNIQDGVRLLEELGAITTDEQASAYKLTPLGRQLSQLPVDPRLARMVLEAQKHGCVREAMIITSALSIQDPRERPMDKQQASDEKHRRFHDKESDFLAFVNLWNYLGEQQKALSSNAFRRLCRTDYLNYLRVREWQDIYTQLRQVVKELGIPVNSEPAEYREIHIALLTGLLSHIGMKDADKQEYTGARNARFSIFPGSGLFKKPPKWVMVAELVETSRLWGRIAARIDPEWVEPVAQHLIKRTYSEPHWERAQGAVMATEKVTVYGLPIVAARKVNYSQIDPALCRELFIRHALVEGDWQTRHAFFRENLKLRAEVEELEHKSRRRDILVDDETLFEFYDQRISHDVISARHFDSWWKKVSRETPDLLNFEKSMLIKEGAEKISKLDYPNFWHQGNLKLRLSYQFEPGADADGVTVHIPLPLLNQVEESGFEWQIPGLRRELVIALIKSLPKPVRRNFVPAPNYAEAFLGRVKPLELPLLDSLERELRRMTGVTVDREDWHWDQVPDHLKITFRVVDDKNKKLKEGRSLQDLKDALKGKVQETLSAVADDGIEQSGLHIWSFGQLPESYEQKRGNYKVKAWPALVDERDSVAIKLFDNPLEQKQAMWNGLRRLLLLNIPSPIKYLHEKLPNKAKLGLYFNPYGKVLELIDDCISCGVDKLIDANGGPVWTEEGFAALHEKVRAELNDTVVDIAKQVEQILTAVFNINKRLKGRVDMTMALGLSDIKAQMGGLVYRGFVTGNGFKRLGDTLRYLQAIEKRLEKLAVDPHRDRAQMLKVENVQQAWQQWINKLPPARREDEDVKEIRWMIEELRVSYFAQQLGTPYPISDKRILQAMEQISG
UniProt P39212: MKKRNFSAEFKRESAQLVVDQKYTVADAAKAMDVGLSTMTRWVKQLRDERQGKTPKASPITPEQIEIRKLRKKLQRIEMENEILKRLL
UniProt P43319: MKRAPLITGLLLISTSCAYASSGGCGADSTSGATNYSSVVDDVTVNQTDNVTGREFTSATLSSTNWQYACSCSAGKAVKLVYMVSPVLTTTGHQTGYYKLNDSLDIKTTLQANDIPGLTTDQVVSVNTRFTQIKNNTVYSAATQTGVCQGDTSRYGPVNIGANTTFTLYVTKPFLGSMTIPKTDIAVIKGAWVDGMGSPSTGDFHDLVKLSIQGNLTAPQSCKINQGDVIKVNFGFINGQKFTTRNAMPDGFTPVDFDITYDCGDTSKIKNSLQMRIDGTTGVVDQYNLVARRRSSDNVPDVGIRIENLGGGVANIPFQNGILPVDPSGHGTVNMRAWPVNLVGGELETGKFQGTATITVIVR
UniProt P42589: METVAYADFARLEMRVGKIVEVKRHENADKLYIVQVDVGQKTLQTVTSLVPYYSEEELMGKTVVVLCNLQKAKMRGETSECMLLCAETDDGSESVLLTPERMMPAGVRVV
UniProt P37744: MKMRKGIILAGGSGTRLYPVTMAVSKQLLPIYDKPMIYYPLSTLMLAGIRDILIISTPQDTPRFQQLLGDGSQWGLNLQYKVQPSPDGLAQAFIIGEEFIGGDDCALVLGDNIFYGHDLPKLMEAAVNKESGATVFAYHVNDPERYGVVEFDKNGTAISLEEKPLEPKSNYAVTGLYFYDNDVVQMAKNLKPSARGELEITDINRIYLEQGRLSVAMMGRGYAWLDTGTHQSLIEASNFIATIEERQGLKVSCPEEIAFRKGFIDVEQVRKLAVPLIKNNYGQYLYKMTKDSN
UniProt P37613: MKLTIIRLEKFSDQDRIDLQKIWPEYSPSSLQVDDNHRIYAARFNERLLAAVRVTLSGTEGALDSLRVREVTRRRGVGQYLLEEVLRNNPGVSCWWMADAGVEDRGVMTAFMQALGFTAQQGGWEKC
UniProt P39360: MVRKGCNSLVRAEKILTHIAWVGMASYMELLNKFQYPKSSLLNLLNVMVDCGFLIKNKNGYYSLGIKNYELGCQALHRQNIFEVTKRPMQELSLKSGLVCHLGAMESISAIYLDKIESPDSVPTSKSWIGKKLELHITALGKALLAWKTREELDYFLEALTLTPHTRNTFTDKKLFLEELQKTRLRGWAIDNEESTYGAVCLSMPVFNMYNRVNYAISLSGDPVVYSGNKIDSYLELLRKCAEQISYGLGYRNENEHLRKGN
UniProt P37330: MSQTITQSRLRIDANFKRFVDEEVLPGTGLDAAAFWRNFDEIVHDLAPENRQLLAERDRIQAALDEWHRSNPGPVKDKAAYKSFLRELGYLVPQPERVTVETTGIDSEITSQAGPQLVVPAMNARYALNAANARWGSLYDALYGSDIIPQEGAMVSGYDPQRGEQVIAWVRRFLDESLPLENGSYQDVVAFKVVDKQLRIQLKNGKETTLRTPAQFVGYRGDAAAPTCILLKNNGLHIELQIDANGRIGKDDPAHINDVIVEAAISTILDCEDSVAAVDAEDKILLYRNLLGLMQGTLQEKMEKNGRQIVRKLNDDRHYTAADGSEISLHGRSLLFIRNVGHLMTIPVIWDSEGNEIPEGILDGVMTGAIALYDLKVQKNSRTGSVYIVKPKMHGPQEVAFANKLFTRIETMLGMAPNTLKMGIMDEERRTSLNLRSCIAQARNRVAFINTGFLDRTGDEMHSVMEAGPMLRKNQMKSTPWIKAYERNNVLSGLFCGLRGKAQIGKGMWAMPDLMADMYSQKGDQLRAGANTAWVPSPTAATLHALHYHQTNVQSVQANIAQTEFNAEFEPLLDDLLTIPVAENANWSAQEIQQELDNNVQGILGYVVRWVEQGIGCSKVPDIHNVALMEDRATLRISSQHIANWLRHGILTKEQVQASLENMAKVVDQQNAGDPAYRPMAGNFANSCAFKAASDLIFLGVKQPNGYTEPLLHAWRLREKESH
UniProt P42603: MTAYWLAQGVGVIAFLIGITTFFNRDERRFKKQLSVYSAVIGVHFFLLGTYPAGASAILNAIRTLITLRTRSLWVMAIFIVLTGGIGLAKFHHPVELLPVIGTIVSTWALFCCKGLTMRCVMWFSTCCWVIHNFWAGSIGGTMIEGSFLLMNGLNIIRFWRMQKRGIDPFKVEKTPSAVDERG
UniProt P36566: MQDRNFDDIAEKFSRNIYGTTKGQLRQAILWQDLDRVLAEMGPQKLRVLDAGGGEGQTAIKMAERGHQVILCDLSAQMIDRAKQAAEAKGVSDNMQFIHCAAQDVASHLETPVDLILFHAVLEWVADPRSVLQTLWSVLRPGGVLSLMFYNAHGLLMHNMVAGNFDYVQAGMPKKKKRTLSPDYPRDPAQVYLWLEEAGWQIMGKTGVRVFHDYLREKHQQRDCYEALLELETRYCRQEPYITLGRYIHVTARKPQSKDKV

Compound: CC1(C)S[C@@H]2[C@H](NC(=O)[C@H](N)c3ccccc3)C(=O)N2[C@H]1C(=O)O [ampicillin]
Experiment: log2 fold change of tryptic peptide abundance, ligand vs vehicle (limited proteolysis) (log2 ratio); higher = more trypsin-susceptible (destabilized)
Details: ligand concentration: 10 uM; sample: E. coli crude lysate

Row | Target | log2 fold change
1 | UniProt P43329 (peptide sequence: IDPEWVEPVAQHLIK, peptide start residue: 687) | 0.349
2 | UniProt P39212 (peptide sequence: AMDVGLSTMTR, peptide start residue: 31) | -0.286
3 | UniProt P43319 (peptide sequence: INQGDVIK, peptide start residue: 224) | -0.362
4 | UniProt P33916 (peptide sequence: HRYPAEFSGGQR, peptide start residue: 420) | 0.635
5 | UniProt P42589 (peptide sequence: TVVVLCNLQK, peptide start residue: 62) | 0.0314
6 | UniProt P37744 (peptide sequence: YGVVEFDKNGTAISLEEKPLEPK, peptide start residue: 146) | 0.171
7 | UniProt P37613 (peptide sequence: LEKFSDQDRIDLQK, peptide start residue: 8) | -0.423
8 | UniProt P39360 (peptide sequence: QNIFEVTKRPMQELSLK, peptide start residue: 79) | -0.678
9 | UniProt P37330 (peptide sequence: AASDLIFLGVK, peptide start residue: 692) | -0.761
10 | UniProt P42603 (peptide sequence: TPSAVDERG, peptide start residue: 175) | -0.0946
11 | UniProt P36566 (peptide sequence: NFDDIAEKFSR, peptide start residue: 5) | -0.44
